Reference: publication PMC10163288
This is one part of the list.

B1: il10ra_site1_normal_mot_HHH_b2_07569_000000265_0001_38_56_H_._HHH_b2_07896_0001_0000200016_0000001_0 (protein)
chain: SSSSSDEEYEEEVRELLEEAKEIEDREEALEVLLEALQLAIQLGDPELVQLVWEVIKRLFSSSSS
B2: il10ra_site1_sap_18_mot_HHH_b1_05056_000000217_0001_1_20_H_._HHH_b1_01984_af2_0001_0000500013_0000002_0_0001 (protein)
chain: SSSSSSEELEEYIEELEELTRQGDEDRVLELLQEALRLAYQERDEEILQLLWEIAKRVAKSSSSS
B3: il10ra_site1_sap_35_mot_HHH_b1_00102_af2_000000216_0001_43_57_H_._HHH_b2_07123_af2_0001_0000100001_0000001_0_0001 (protein)
chain: SSSSSDREEIEEEVEELLEEAKKISDPRELSEVLLRAVQLAFRVGDPELLHEVWEVFERLSSSSS
B4: il10ra_site1_normal_mot_HHH_b2_02736_000000092_0001_22_38_H_._HHH_b1_02879_af2_0001_0000300020_0000001_0 (protein)
chain: SSSSSEIAQEVYELLREAIELLADGNPEEAEEVVREALELAEEAGNEVLAWQARFLLREIESSSS
B5: il10ra_site1_normal_mot_HHH_b1_02062_000000185_0001_1_20_H_._HHH_b1_06583_0001_0000300011_0000001_0_af2pred_0001 (protein)
chain: SSSSSEKLREALELSRRILELLAEGDKEEAKELLRELEELAEELNNPLLEHLLKRLERELNSSSS
B6: il10ra_site1_normal_mot_HHH_b2_00479_000000091_0001_1_12_H_._HHH_b1_06081_0001_0000100003_0000002_0_af2pred_0001 (protein)
chain: SSSSSKVVEEARKASERALELLRQGNEEEVERLLREALELLEEHNNLVLLFILESLLRRIKSSSS
B7: il10ra_site1_normal_mot_8756ee2cf497b5429c717dfc0c0bcfd6_0001_000000186_0001_1_13_H_._HHH_b2_00413_0001_0000400023_0000001_0_af2pred_0001 (protein)
chain: SSSSSDSDVNRRVIELSREALHIDDEEERREVLEEALELAEEGNNLDLLAVLKYILELLSSSSSS
B8: il10ra_site1_sap_13_mot_HHH_b2_00943_af2_000000149_0001_1_17_H_._HHH_b1_05740_0001_0000400009_0000001_0_0001 (protein)
chain: SSSSDKSQEIYEILRRVAEALLDGDPEEAEELLREAKRLAEELGNRLFRWQIEFLEELLKSSSSS
B9: il10ra_site1_normal_mot_HHH_b1_04065_000000255_0001_41_56_H_._HHH_b2_07881_0001_0000300032_0000001_0_af2pred_dldesign_0_af2pred (protein)
chain: SSSSDVKAEVDRLIEEARRRKEEGDEVAVATALREAMRLAYEAKDAELFKKVIDEAVRLYESSSS
B10: il10ra_site1_normal_mot_HHH_b1_00456_000000263_0001_1_17_H_._HHH_b2_02667_0001_0000400035_0000001_0_af2pred_0001 (protein)
chain: SSSSDKEEVEEVQRELKRLLEEGDEEELEELLKEAFQLAAKLRDDELAYALLRLFAELRSGSSSS
B11: il10ra_site1_normal_mot_HHH_b2_07579_000000275_0001_1_19_H_._HHH_b2_06527_0001_0000300022_0000002_0 (protein)
chain: SSSSSDEELREVYELIRKALHIDDPEERREVLEEALRIAEENNNAVFVFSIRHALRDVNSSSSSS
B12: il10ra_site1_normal_mot_HHH_b1_02464_000000069_0001_1_19_H_._HHH_b1_02613_0001_0000100010_0000002_0 (protein)
chain: SSSSDLEEEVERLEEELEELVKRNNHEEVSELLMRLARLAFEYNDEEIDRIVIRLARLLGSSSSS
B13: il10ra_site1_normal_mot_HHH_b1_04514_000000156_0001_1_18_H_._HHH_b1_01665_af2_0001_0000200012_0000001_0 (protein)
chain: SSSSDYEEVKKLIKRIVELLRNGNKEEAEKLIEELEELAEELNNPSVEFAARLLEEALKRSSSSS
B14: il10ra_site1_sap_22_mot_HHH_b2_02043_000000010_0001_1_19_H_._HHH_b2_06980_0001_0000100001_0000001_0_0001_af2pred_dldesign_0_af2pred (protein)
chain: SSSSSALEALLDEIERLIEEGKLEEAKELLREATRLAIEANDPELLKRVLELAEKLKEKGSSSSS
B15: il10ra_site1_sap_13_mot_HHH_b1_00169_000000276_0001_1_18_H_._HHH_b2_07690_af2_0001_0000100004_0000001_0_0001 (protein)
chain: SSSSDASRRIYELLREAMELLDEGNPEEAEEVLEEAKELAEEANNLLFLLQIEFILREVTSSSSS
B16: il10ra_site1_normal_mot_HHH_b1_00814_af2_000000078_0001_43_57_H_._HHH_b2_00573_0001_0000100015_0000001_0_af2pred_0001 (protein)
chain: SSSSSSSEEEQVEELLEEARHIDDPKERFRVLREALEVASELGNPELFKLIREFVQEILSSSSSS
B17: il10ra_site1_normal_mot_HHH_b2_03328_af2_000000127_0001_1_19_H_._HHH_b1_08499_0001_0000200023_0000001_0 (protein)
chain: SSSSDVAEEAYELSRRAAELLYQGNPEEARELLEEAEELLKERGDHVILFAVRLLLRILNSSSSS
B18: il10ra_site1_sap_25_mot_2c1a291787c6f40772924d4e9068d803_0001_af2_000000222_0001_34_48_H_._HHH_b2_06714_0001_0000500021_0000001_0_0001 (protein)
chain: SSSSSDALERAWELAKRAAESDDPEEVRELREEVEEIAEEFNDPFVRYIAEAIELMEERLSSSSS
B19: il10ra_site1_normal_mot_HHH_b1_06994_000000193_0001_40_55_H_._HHH_b1_05015_0001_0000100004_0000002_0 (protein)
chain: SSSSSEREEHIEELARTLTELIEQVGSPFLRESLEILLELAEELGDPELERIIRELLEELNSSSS
B20: il10ra_site1_sap_19_mot_HHH_b2_00984_000000042_0001_1_20_H_._HHH_b1_00336_0001_0000600036_0000002_0_0001 (protein)
chain: SSSSSDEELRELARAAERLIRQVDDEKSTEALFLAIELLLERLGDEEIKEILERVEEFLSSSSSS
B21: il10ra_site1_normal_mot_HHH_b1_00992_000000182_0001_23_40_H_._HHH_b2_06940_0001_0000200017_0000003_0 (protein)
chain: SSSSDEEERYVELSFRFARFLFEAGDPEAARRILEAAKQIAERAGNEELLKEIERLEEELKSSSS
B22: il10ra_site1_normal_mot_HHH_b1_01821_000000158_0001_23_39_H_._HHH_b2_03455_af2_0001_0000400012_0000001_0 (protein)
chain: SSSSSDEEVEELEKEVEELLKQGNPEEALHVVFRAIRLAEELGDQELLQRLWELFREIAGSSSSS
B23: il10ra_site1_sap_18_mot_HHH_b1_08477_000000091_0001_40_57_H_._HHH_b1_01666_af2_0001_0000300011_0000001_0_0001 (protein)
chain: SSSSDERERFARLVQKALRLAFQRRDEEALQLLWELMHRFLRHGDPRILEELEELLEELEGSSSS
B24: il10ra_site1_sap_16_mot_HHH_b1_06341_af2_000000167_0001_17_35_H_._HHH_b1_02933_0001_0000200014_0000001_0_0001_af2pred_0001 (protein)
chain: SSSSSTDSTEVLRLIREALHIEDPEEAREVLEEAEEIARELGNEQLERAVETAKRAIERSSSSSS

The binders below were run against il10ra, Q13651 (assay: yeast display titration).

Apparent Kd, inactive:
B1 no binding seen
B2 no binding seen
B3 no binding seen
B4 no binding seen
B5 no binding seen
B6 no binding seen
B7 no binding seen
B8 no binding seen
B9 no binding seen
B10 no binding seen
B11 no binding seen
B12 no binding seen
B13 no binding seen
B14 no binding seen
B15 no binding seen
B16 no binding seen
B17 no binding seen
B18 no binding seen
B19 no binding seen
B20 no binding seen
B21 no binding seen
B22 no binding seen
B23 no binding seen
B24 no binding seen

Two successive records out of the list so far, quoted:
Apparent Kd, inactive:
B13 no binding seen
B14 no binding seen
